Source: PMC5209662
Positions count from the first letter of the chain named. Read-outs that look alike come from different tables or passages of the source. These are yes or no findings as the source states them, for the method shown. In cells and extracts the contact can be indirect. Some binding calls cover weakened binding; strength is not graded here. Sequences can lack the tags named with a protein. One block for each molecule: values may come before it.

Chains of the proteins cited; added tags and fusions are not shown.
UniProt P05130: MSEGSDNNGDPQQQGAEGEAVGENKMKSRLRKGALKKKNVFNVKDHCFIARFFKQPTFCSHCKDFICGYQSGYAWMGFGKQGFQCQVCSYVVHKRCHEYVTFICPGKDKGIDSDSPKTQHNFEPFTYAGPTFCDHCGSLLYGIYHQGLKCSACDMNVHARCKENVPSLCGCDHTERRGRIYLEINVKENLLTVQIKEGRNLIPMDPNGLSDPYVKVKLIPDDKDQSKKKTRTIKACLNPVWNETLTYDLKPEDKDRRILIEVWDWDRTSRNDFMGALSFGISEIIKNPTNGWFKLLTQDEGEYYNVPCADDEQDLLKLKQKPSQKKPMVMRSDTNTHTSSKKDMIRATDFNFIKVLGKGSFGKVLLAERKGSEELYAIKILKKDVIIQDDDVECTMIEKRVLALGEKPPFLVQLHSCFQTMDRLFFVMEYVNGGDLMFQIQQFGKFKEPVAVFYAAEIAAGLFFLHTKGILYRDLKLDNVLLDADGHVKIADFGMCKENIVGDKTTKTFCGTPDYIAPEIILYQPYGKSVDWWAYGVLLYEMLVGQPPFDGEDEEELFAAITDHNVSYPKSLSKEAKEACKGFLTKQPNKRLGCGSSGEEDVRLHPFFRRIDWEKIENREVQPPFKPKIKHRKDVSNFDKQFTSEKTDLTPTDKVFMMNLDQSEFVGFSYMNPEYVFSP

Legend:
Test in all cases: co-IP; lysates of co-transfected S2 cells (1% NP-40, 20 mM Tris-HCl pH 8.0, 150 mM NaCl, 2 mM EDTA); Flag antibody-conjugated beads, 2-2.5 hours at 4 °C, washes with lysis buffer; Western blot with anti-Myc-HRP or anti-HA-HRP
[1] = molecular target: T1, Drosophila Gcm carrying the R59L mutation, 3xFlag-tagged (Drosophila) (UniProt Q27403)
T1 sequence: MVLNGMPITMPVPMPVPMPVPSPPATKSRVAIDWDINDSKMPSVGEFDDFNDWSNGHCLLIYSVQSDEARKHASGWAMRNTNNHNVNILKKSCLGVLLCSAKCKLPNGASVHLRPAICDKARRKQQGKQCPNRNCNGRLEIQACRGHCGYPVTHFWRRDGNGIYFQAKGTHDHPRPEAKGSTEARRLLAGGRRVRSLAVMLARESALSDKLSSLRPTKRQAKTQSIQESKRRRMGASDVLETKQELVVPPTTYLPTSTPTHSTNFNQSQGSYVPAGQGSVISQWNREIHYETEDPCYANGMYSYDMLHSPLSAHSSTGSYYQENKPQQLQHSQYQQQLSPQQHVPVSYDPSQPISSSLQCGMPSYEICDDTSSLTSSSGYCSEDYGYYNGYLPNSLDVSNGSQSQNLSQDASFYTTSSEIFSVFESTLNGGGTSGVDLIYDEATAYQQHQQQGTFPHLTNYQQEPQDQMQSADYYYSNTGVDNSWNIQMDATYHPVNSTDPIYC

[2] = molecular target: T2, Drosophila Gcm (Glial Cells Missing), 3xFlag-tagged (Drosophila) (UniProt Q27403)
T2 sequence: T1 sequence with L59R

[3] = molecular target: T1, Drosophila Gcm carrying the R59L mutation, 3xFlag-tagged (Drosophila); remark: listed apart in the source
[4] = molecular target: T2, Drosophila Gcm (Glial Cells Missing), 3xFlag-tagged (Drosophila); remark: listed apart in the source

binding [1]: binds | binding [2]: binds
Molecule: Drosophila Protein Kinase C PKC53E, 3xHA-tagged (from UniProt P05130 1-679) (enzyme)

binding [3]: binds | binding [4]: binds
B1: F-box protein Supernumerary limbs (Slimb), 6xMyc-tagged (protein, UniProt Q9VDE3 1-510)
chain: MMKMETDKIMDETNSNAQAFTTTMLYDPVRKKDSSPTYQTERELCFQYFTQWSESGQVDFVEHLLSRMCHYQHGQINAYLKPMLQRDFITLLPIKGLDHIAENILSYLDAESLKSSELVCKEWLRVISEGMLWKKLIERKVRTDSLWRGLAERRNWMQYLFKPRPGQTQRPHSFHRELFPKIMNDIDSIENNWRTGRHMLRRINCRSENSKGVYCLQYDDGKIVSGLRDNTIKIWDRTDLQCVKTLMGHTGSVLCLQYDDKVIISGSSDSTVRVWDVNTGEMVNTLIHHCEAVLHLRFNNGMMVTCSKDRSIAVWDMTSPSEITLRRVLVGHRAAVNVVDFDEKYIVSASGDRTIKVWSTSSCEFVRTLNGHKRGIACLQYRDRLVVSGSSDNSIRLWDIECGACLRVLEGHEELVRCIRFDTKRIVSGAYDGKIKVWDLVAALDPRAASNTLCLNTLVEHTGRVFRLQFDEFQIVSSSHDDTILIWDFLNFTPNENKTGRTPSPALMEH
